Source: PubChem BioAssay (NCATS)
The inconclusive results got no clear call from the source; some entries with a clear call stand among them for comparison. Potencies beside an inconclusive call are fits to weak or partial responses and may not hold up. Active and inactive are the calls of the source. The call rests on the fitted dose curve; in most records, active means well fitted curve in the direction sought with a large enough effect; inconclusive means small, poorly fitted or top-dose-only effect, or another doubt; inactive means no such curve, though single readings can be large; an effect the other way counts as inactive or inconclusive.

Assays:
[1] = Quantitative High-Throughput drug screen in 47 multiple myeloma cell lines against the NCATS MIPE library collection: FR4_PLB cell viability assay (AID 1918924; further: nearly all actives have a fitted effect of over 35% in size)
In short: (§1)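 Approved and investigational drugs from MIPE 4.0 were added by pin tool to 500 cells per well. After 48 hours at 37C, ATP-based CellTiter-Glo luminescence indicated remaining viability.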

[2] = Quantitative High-Throughput drug screen in 47 multiple myeloma cell lines against the NCATS MIPE library collection: EJM_DSMZ cell viability assay (AID 1918926; further: nearly all actives have a fitted effect of over 30% in size)
In short: (§2)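 Luminescent ATP measurement with CellTiter-Glo gives viability, scaled between DMSO-only wells (100%) and media-only wells (0%). Cells, 500 per well, faced library compounds for 48 hours at 37C.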

[3] = Quantitative High-Throughput drug screen in 47 multiple myeloma cell lines against the NCATS MIPE library collection: AMO1_DSMZ cell viability assay (AID 1918927; further: nearly all actives have a fitted effect of over 30% in size)
In short: as §2

[4] = Quantitative High-Throughput drug screen in 47 multiple myeloma cell lines against the NCATS MIPE library collection: Karpas417_ECACC cell viability assay (AID 1918961); conditions: Karpas417 myeloma viability, CellTiter-Glo ATP luminescence, 48 h; viability (% of DMSO): at 45.8 µM (top of the series)
In short: (§3)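 Inhibition of cell viability is measured here. Each line was plated at 500 cells per well, treated with MIPE 4.0 drugs, kept 48 hours at 37C, then assayed for ATP content by CellTiter-Glo luminescence.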

[5] = Quantitative High-Throughput drug screen in 47 multiple myeloma cell lines against the NCATS MIPE library collection: KHM11_PLB cell viability assay (AID 1918962); conditions: KHM11 myeloma cell viability, CellTiter-Glo ATP luminescence, 48 h; series mostly up to 45.8 µM; further: nearly all actives have a fitted effect of over 35% in size
In short: as §1

[6] = Quantitative High-Throughput drug screen in 47 multiple myeloma cell lines against the NCATS MIPE library collection: JIM1_ECACC cell viability assay (AID 1918964); conditions: JIM1 myeloma viability, CellTiter-Glo ATP luminescence, 48 h; viability (% of DMSO): at 45.8 µM (top of the series)
In short: as §2

[7] = Quantitative High-Throughput drug screen in 47 multiple myeloma cell lines against the NCATS MIPE library collection: INA6_PLB cell viability assay (AID 1918965; further: nearly all actives have a fitted effect of over 55% in size); conditions: INA6 myeloma viability, CellTiter-Glo ATP luminescence, 48 h; viability (% of control): at 45.8 µM (top of the series)
In short: as §3

[8] = Quantitative High-Throughput drug screen in 47 multiple myeloma cell lines against the NCATS MIPE library collection: JJN3_DSMZ cell viability assay (AID 1918966; further: nearly all actives have a fitted effect of over 50% in size); conditions: JJN3 myeloma cells viability, CellTiter-Glo ATP, 48 h; viability, % of DMSO: at 45.8 µM (top of the series)
In short: as §2

[9] = Quantitative High-Throughput drug screen in 47 multiple myeloma cell lines against the NCATS MIPE library collection: H1112_PLB cell viability assay (AID 1918967; further: nearly all actives have a fitted effect of over 30% in size)
In short: as §2

[10] = Quantitative High-Throughput drug screen in 47 multiple myeloma cell lines against the NCATS MIPE library collection: ARD_JJKsccE7 cell viability assay (AID 1918929); conditions: ARD myeloma cell line viability, CellTiter-Glo, 48 h; viability: at 45.8 µM (top of the series)
In short: as §2

[11] = Quantitative High-Throughput drug screen in 47 multiple myeloma cell lines against the NCATS MIPE library collection: Karpas620_DSMZ cell viability assay (AID 1918959); conditions: Karpas620 myeloma viability, CellTiter-Glo ATP luminescence, 48 h; viability (% of DMSO): at 45.8 µM (top of the series); further: nearly all actives have a fitted effect of over 30% in size
In short: as §1

[12] = Quantitative High-Throughput drug screen in 47 multiple myeloma cell lines against the NCATS MIPE library collection: KMM1_JCRB cell viability assay (AID 1918960); conditions: KMM1 myeloma viability, CellTiter-Glo ATP luminescence, 48 h; viability (% of DMSO): at 45.8 µM (top of the series); further: nearly all actives have a fitted effect of over 30% in size
In short: (§4)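 Each line was plated at 500 cells/well and treated 48 h with library drugs. Viability came from CellTiter-Glo luminescence relative to DMSO and cell-free medium controls.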

[13] = Quantitative High-Throughput drug screen in 47 multiple myeloma cell lines against the NCATS MIPE library collection: JIM3_ECACC cell viability assay (AID 1918963; further: nearly all actives have a fitted effect of over 35% in size)
In short: as §1

[14] = Quantitative High-Throughput drug screen in 47 multiple myeloma cell lines against the NCATS MIPE library collection: KMS27_JCRB cell viability assay (AID 1918970); conditions: KMS27 myeloma cells, CellTiter-Glo ATP viability, 48 h; viability (% of DMSO): at 45.8 µM (top of the series); further: nearly all actives have a fitted effect of over 30% in size
In short: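 ATP-based viability (CellTiter-Glo luminescence) is measured in cells treated 48 h with approved and investigational drugs at 37 °C. Controls are DMSO-only wells for full viability and media-only wells for none.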

[15] = Quantitative High-Throughput drug screen in 47 multiple myeloma cell lines against the NCATS MIPE library collection: ARP1_JJKsccF8 cell viability assay (AID 1918928; further: nearly all actives have a fitted effect of over 40% in size)
In short: as §4

[16] = Quantitative High-Throughput drug screen in 47 multiple myeloma cell lines against the NCATS MIPE library collection: Karpas25_ECACC cell viability assay (AID 1918968; further: nearly all actives have a fitted effect of over 35% in size); conditions: Karpas25 myeloma viability, CellTiter-Glo ATP, 48 h; viability (% of control): at 45.8 µM (top of the series)
In short: as §2

[17] = Quantitative High-Throughput drug screen in 47 multiple myeloma cell lines against the NCATS MIPE library collection: Delta47_JCRB cell viability assay (AID 1918925; further: nearly all actives have a fitted effect of over 45% in size); conditions: Delta47 myeloma viability, CellTiter-Glo ATP, 48 h; viability (% of DMSO): at 45.8 µM (top of the series)
In short: as §2
Potency means the concentration at half of the fitted maximal effect.

Structure (SMILES) | Potency [1] | Potency [2] | Potency [3] | Potency [4] | Potency [5] | Potency [6] | Potency [7] | Potency [8] | Potency [9] | Potency [10] | Potency [11] | Potency [12] | Potency [13] | Potency [14] | Potency [15] | Potency [16] | Potency [17]
CC(C)C[C@@H](C(=O)N[C@H](C(=O)OC1CCCC1)c1ccccc1)[C@H](O)C(=O)NO | inconclusive: 20.9 µM [cytotoxic, partial curve] | inconclusive: 20.9 µM [cytotoxic, partial curve, poor fit] | inactive | active: 1.32 µM | inconclusive: 37200 nM [cytotoxic, single point] | inconclusive: 0.418 µM [cytotoxic, partial curve, poor fit] | inconclusive: 33.2 µM [cytotoxic, single point] | inconclusive: 18.7 µM [cytotoxic, partial curve] | inconclusive: 14.8 µM [cytotoxic, partial curve] |  |  |  |  |  |  |  | 
Cc1nc(NC(=O)N2CCC[C@@H]2C(N)=O)sc1-c1ccnc(C(C)(C)C(F)(F)F)c1 | inconclusive: 20.9 µM [cytotoxic, partial curve] | inconclusive: 2.35 µM [cytotoxic, partial curve] | inconclusive: 0.59 µM [cytotoxic, full curve, poor fit] | inconclusive: 0.209 µM [cytotoxic, full curve, poor fit] | inconclusive: 5900 nM [cytotoxic, partial curve] | inconclusive: 0.118 µM [cytotoxic, full curve, poor fit] |  | active: 6.62 µM | inconclusive: 0.332 µM [cytotoxic, full curve] | inconclusive: 235 nM [cytotoxic, full curve, poor fit] | inconclusive: 0.469 µM [cytotoxic, full curve, poor fit] | inconclusive: 0.209 µM [cytotoxic, full curve, poor fit] | inconclusive: 1.32 µM [cytotoxic, full curve] | inactive |  |  | 
CC(C)C(=O)Nc1ncc(-c2cc(C(F)F)nn2-c2c(Cl)cccc2Cl)s1 | inconclusive: 11.8 µM [cytotoxic, partial curve] | inconclusive: 20.9 µM [cytotoxic, partial curve, poor fit] |  | inconclusive: 37.2 µM [cytotoxic, partial curve, poor fit] | inconclusive: 18.7 nM [rising, full curve, poor fit] | active: 10.5 µM | active: 23.5 µM | inconclusive: 7.43 µM [cytotoxic, full curve, poor fit] | inconclusive: 18.7 µM [cytotoxic, partial curve] |  | inconclusive: 10.5 µM [cytotoxic, partial curve] | active: 16.6 µM |  |  | inconclusive: 23.5 µM [cytotoxic, partial curve] |  | 
N[C@H](CSC(c1ccccc1)(c1ccccc1)c1ccccc1)C(=O)O | active: 5.26 µM | active: 18.7 µM |  |  | inconclusive: 52.6 nM [rising, full curve, poor fit] | active: 14.8 µM |  | inconclusive: 2.09 µM [cytotoxic, full curve, poor fit] | inconclusive: 8.33 µM [cytotoxic, full curve] | inconclusive: 33200 nM [cytotoxic, single point] | inconclusive: 23.5 µM [cytotoxic, partial curve] | inconclusive: 33.2 µM [cytotoxic, single point] |  |  |  | active: 11.8 µM | 
Clc1ccc(C(Cn2ccnc2)OCc2ccc(Sc3ccccc3)cc2)c(Cl)c1 (stereo unspecified) | inconclusive: 29.6 µM [cytotoxic, single point] | inconclusive: 23.5 µM [cytotoxic, partial curve] |  |  | inconclusive: 37200 nM [cytotoxic, single point] |  |  | inconclusive: 37.2 µM [cytotoxic, single point] | inconclusive: 23.5 µM [cytotoxic, partial curve] |  | active: 18.7 µM |  | inconclusive: 33.2 µM [cytotoxic, single point] |  | inconclusive: 29.6 µM [cytotoxic, single point] | active: 18.7 µM | 
CC(C)Cc1ccc(C(C)C(=O)O)cc1 (stereo unspecified) | inconclusive: 0.0091 µM [rising, full curve, poor fit] | inconclusive: 0.0005 µM [rising, full curve, poor fit] |  | inconclusive: 16.2 µM [rising, partial curve, poor fit] | inconclusive: 144 nM [rising, full curve] | inconclusive: 1.44 µM [cytotoxic, full curve, poor fit] |  | inconclusive: 0.0029 µM [rising, full curve, poor fit] |  | inactive |  | inactive | inactive | inactive | inactive | inconclusive: 2.88 µM [cytotoxic, partial curve, poor fit] | 
O=C(O)c1cc(O)c2c(c1)C(=O)c1cccc(O)c1C2=O | inconclusive: 48.1 µM [cytotoxic, partial curve] | inconclusive: 54 µM [cytotoxic, single point] | inconclusive: 21.5 µM [cytotoxic, full curve] | inconclusive: 10.8 µM [cytotoxic, full curve, poor fit] | inconclusive: 67.9 nM [cytotoxic, full curve, poor fit] |  | inconclusive: 1.71 µM [cytotoxic, partial curve, poor fit] | inconclusive: 13.6 µM [cytotoxic, partial curve, poor fit] |  |  | inconclusive: 30.3 µM [cytotoxic, partial curve] | inconclusive: 10.8 µM [cytotoxic, full curve, poor fit] |  | inconclusive: 13.6 µM [cytotoxic, full curve, poor fit] |  | inconclusive: 12.1 µM [cytotoxic, partial curve, poor fit] | 
CC(C(=O)O)c1cccc(C(=O)c2ccccc2)c1 (stereo unspecified) | inactive | inconclusive: 11.8 µM [cytotoxic, partial curve] |  | inconclusive: 1.05 µM [rising, full curve, poor fit] |  | inconclusive: 0.0526 µM [cytotoxic, full curve, poor fit] | inconclusive: 23.5 µM [cytotoxic, partial curve, poor fit] | inconclusive: 0.743 µM [cytotoxic, full curve, poor fit] | active: 18.7 µM | inconclusive: 26.4 nM [cytotoxic, full curve, poor fit] | inconclusive: 0.0017 µM [cytotoxic, full curve, poor fit] |  | inconclusive: 29.6 µM [cytotoxic, partial curve] | inconclusive: 0.0187 µM [cytotoxic, full curve, poor fit] | inconclusive: 0.166 µM [rising, full curve, poor fit] |  | 
CCCc1nc2c(C)cc(-c3nc4ccccc4n3C)cc2n1Cc1ccc(-c2ccccc2C(=O)O)cc1 | inconclusive: 18.7 µM [cytotoxic, partial curve, poor fit] |  |  |  | inactive |  | inconclusive: 37.2 µM [cytotoxic, single point] | inconclusive: 0.296 µM [rising, full curve, poor fit] |  |  | inactive |  |  |  |  | inactive | 
CC(C)(C)OC(=O)CN(Cc1ccc(Cl)cc1)Cc1ccc([N+](=O)[O-])s1 |  | inactive | inconclusive: 7.43 µM [cytotoxic, partial curve, poor fit] | inconclusive: 29.6 µM [rising, single point] | inactive | inconclusive: 16.6 µM [cytotoxic, single point] | inconclusive: 26.4 µM [cytotoxic, single point] | active: 10.5 µM | inconclusive: 6.62 µM [cytotoxic, partial curve, poor fit] | inactive | inactive | inactive |  | inactive | inconclusive: 18.7 µM [cytotoxic, partial curve, poor fit] | inconclusive: 23.5 µM [cytotoxic, partial curve, poor fit] | inconclusive: 264 nM [cytotoxic, partial curve, poor fit]
C=C1C(=CC=C2CCC[C@]3(C)[C@@H]([C@H](C)CCCC(C)(C)O)CC[C@@H]23)C[C@@H](O)C[C@@H]1O | active: 14.8 µM |  |  | inconclusive: 6.62 µM [cytotoxic, partial curve, poor fit] |  | active: 5.26 µM |  | inconclusive: 13.2 µM [cytotoxic, partial curve, poor fit] |  |  | inconclusive: 11.8 µM [cytotoxic, single point] |  | inconclusive: 8.33 µM [cytotoxic, partial curve, poor fit] | active: 1.66 µM | inconclusive: 26.4 µM [cytotoxic, partial curve, poor fit] |  | 

2 records picked at random from those above, as already listed:
Structure (SMILES) | Potency [1] | Potency [2] | Potency [3] | Potency [4] | Potency [5] | Potency [6] | Potency [7] | Potency [8] | Potency [9] | Potency [10] | Potency [11] | Potency [12] | Potency [13] | Potency [14] | Potency [15] | Potency [16] | Potency [17]
CC(C(=O)O)c1cccc(C(=O)c2ccccc2)c1 (stereo unspecified) | inactive | inconclusive: 11.8 µM [cytotoxic, partial curve] |  | inconclusive: 1.05 µM [rising, full curve, poor fit] |  | inconclusive: 0.0526 µM [cytotoxic, full curve, poor fit] | inconclusive: 23.5 µM [cytotoxic, partial curve, poor fit] | inconclusive: 0.743 µM [cytotoxic, full curve, poor fit] | active: 18.7 µM | inconclusive: 26.4 nM [cytotoxic, full curve, poor fit] | inconclusive: 0.0017 µM [cytotoxic, full curve, poor fit] |  | inconclusive: 29.6 µM [cytotoxic, partial curve] | inconclusive: 0.0187 µM [cytotoxic, full curve, poor fit] | inconclusive: 0.166 µM [rising, full curve, poor fit] |  | 
CC(C)C[C@@H](C(=O)N[C@H](C(=O)OC1CCCC1)c1ccccc1)[C@H](O)C(=O)NO | inconclusive: 20.9 µM [cytotoxic, partial curve] | inconclusive: 20.9 µM [cytotoxic, partial curve, poor fit] | inactive | active: 1.32 µM | inconclusive: 37200 nM [cytotoxic, single point] | inconclusive: 0.418 µM [cytotoxic, partial curve, poor fit] | inconclusive: 33.2 µM [cytotoxic, single point] | inconclusive: 18.7 µM [cytotoxic, partial curve] | inconclusive: 14.8 µM [cytotoxic, partial curve] |  |  |  |  |  |  |  | 
